# Cell number after 72 h of treatment

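Human melanoma cells were exposed to two drugs together for 72 h in 1,536-well plates and read by automated microscopy after fixing and staining. The read-out is cell count (nuclei) in % of the DMSO control; lower values mean stronger growth inhibition or killing. Concentrations were fixed for each drug; these are the higher of two levels. No replicate spread is given; individual values may be noisy.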 An unselected part of the screen is shown. A dash means that no value is listed here.

Drugs:
gemcitabine (0.002 µM): Nc1ccn([C@@H]2O[C@H](CO)[C@@H](O)C2(F)F)c(=O)n1
tamatinib (2 µM): COc1cc(Nc2ncc(F)c(Nc3ccc4c(n3)NC(=O)C(C)(C)O4)n2)cc(OC)c1OC
temozolomide (10 µM): Cn1nnc2c(C(N)=O)ncn2c1=O
tanespimycin (0.01 µM): C=CCNC1=C2C[C@@H](C)C[C@H](OC)[C@H](O)[C@@H](C)/C=C(\C)[C@H](OC(N)=O)[C@@H](OC)/C=C\C=C(/C)C(=O)NC(=CC1=O)C2=O
FH535 (5 µM): Cc1cc([N+](=O)[O-])ccc1NS(=O)(=O)c1cc(Cl)ccc1Cl
AZD7762 (0.1 µM): NC(=O)Nc1cc(-c2cccc(F)c2)sc1C(=O)N[C@H]1CCCNC1
tozasertib (0.03 µM): Cc1cc(Nc2cc(N3CCN(C)CC3)nc(Sc3ccc(NC(=O)C4CC4)cc3)n2)n[nH]1
L-779450 (1 µM): Oc1cc(-c2nc(-c3ccccc3)[nH]c2-c2ccncc2)ccc1Cl
perifosine (2 µM): CCCCCCCCCCCCCCCCCCOP(=O)([O-])OC1CC[N+](C)(C)CC1
KU-0063794 (0.1 µM): COc1ccc(-c2ccc3c(N4CCOCC4)nc(N4C[C@@H](C)O[C@@H](C)C4)nc3n2)cc1CO
fludarabine (1 µM): Nc1nc(F)nc2c1ncn2[C@@H]1O[C@H](CO)[C@@H](O)[C@@H]1O
crizotinib (1 µM): C[C@@H](Oc1cc(-c2cnn(C3CCNCC3)c2)cnc1N)c1c(Cl)ccc(F)c1Cl
ENMD-2076 (0.2 µM): Cc1cc(Nc2cc(N3CCN(C)CC3)nc(/C=C/c3ccccc3)n2)n[nH]1
NVP-TAE684 (0.4 µM): COc1cc(N2CCC(N3CCN(C)CC3)CC2)ccc1Nc1ncc(Cl)c(Nc2ccccc2S(=O)(=O)C(C)C)n1
fingolimod (10 µM): CCCCCCCCc1ccc(CCC(N)(CO)CO)cc1
VX-702 (2 µM): NC(=O)c1ccc(N(C(N)=O)c2c(F)cccc2F)nc1-c1ccc(F)cc1F
docetaxel (0.0005 µM): CC(=O)O[C@@]12CO[C@@H]1C[C@H](O)[C@@]1(C)C(=O)[C@H](O)C3=C(C)[C@@H](OC(=O)[C@H](O)[C@@H](NC(=O)OC(C)(C)C)c4ccccc4)C[C@@](O)([C@@H](OC(=O)c4ccccc4)[C@H]21)C3(C)C
etoposide (0.1 µM): COc1cc([C@@H]2c3cc4c(cc3[C@@H](O[C@@H]3O[C@@H]5CO[C@@H](C)O[C@H]5[C@H](O)[C@H]3O)[C@H]3COC(=O)[C@H]23)OCO4)cc(OC)c1O
SU6656 (2 µM): CN(C)S(=O)(=O)c1ccc2c(c1)/C(=C/c1cc3c([nH]1)CCCC3)C(=O)N2
stibogluconate (10 µM): O=C(O)[C@@H]1[O][Sb](=[O])([O][Sb]2(=[O])[O][C@H]([C@H](O)CO)[C@H](O)[C@H](C(=O)O)[O]2)[O][C@H]([C@H](O)CO)[C@@H]1O (stereo not given in full)

| # | Combination | COLO 792 | COLO 800 | WM3619 | WM451Lu | C32 | COLO 829 |
|---|---|---|---|---|---|---|---|
| 1 | fingolimod + crizotinib | 1.5 | - | - | - | - | - |
| 2 | VX-702 + tanespimycin | 61.7 | - | - | - | - | - |
| 3 | VX-702 + L-779450 | 114 | - | - | - | - | - |
| 4 | FH535 + temozolomide | 75.4 | 67.1 | 61.7 | 98.5 | 96.8 | 76.8 |
| 5 | temozolomide + AZD7762 | - | - | 21.8 | 98.1 | 55.5 | - |
| 6 | KU-0063794 + etoposide | - | - | 66.1 | 86.6 | 88.0 | - |
| 7 | stibogluconate + FH535 | 71.4 | - | 80.1 | 68.9 | - | - |
| 8 | SU6656 + NVP-TAE684 | 52.0 | 50.8 | 79.6 | 65.7 | 65.0 | 64.9 |
| 9 | NVP-TAE684 + gemcitabine | 83.0 | 28.0 | 47.8 | 44.5 | 66.6 | 57.8 |
| 10 | ENMD-2076 + KU-0063794 | - | - | - | - | 99.8 | - |
| 11 | stibogluconate + tamatinib | 39.0 | - | 83.3 | 59.3 | - | - |
| 12 | fludarabine + tozasertib | - | - | - | - | 82.0 | - |
| 13 | perifosine + docetaxel | 20.6 | - | 63.5 | 45.4 | - | - |

For reference, 2 entries once more:

Combination	COLO 792	COLO 800	WM3619	WM451Lu	C32	COLO 829
fludarabine + tozasertib	-	-	-	-	82.0	-
ENMD-2076 + KU-0063794	-	-	-	-	99.8	-

Data from the primary screen of doi:10.1371/journal.pone.0140310, rounded.